Values from PubChem BioAssay AID504795 (Drosophila RNAi Screening Center, 2011)
Purpose: 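Knock-downs causing abnormal branching, bundling, swelling or growth of cultured neurons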 (primary screen). System: primary Drosophila neurons and glia. Reagent: long dsRNA against Drosophila genes, 250 ng dsRNA per well. Duration: one week. Detection: 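GFP-labelled neurons and glia imaged live by automated microscope one week after 250 ng dsRNA per well; morphology scored by eye as descriptive phenotype terms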.
The reagents shown are a selection, not the whole library. 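Every listed dsRNA shows some phenotype; how reagents were selected for listing is not stated.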 Names joined by + are all predicted targets of the reagent. Reagent sequences are not shown.

| gene | PubChem SID | phenotype seen, replicate 1 | phenotype seen, replicate 2 |
| --- | --- | --- | --- |
| CG4962 | SID104190256 | too many neurite branches | – |
| RhoU | SID104197596 | axon bundles split apart | – |
| Mical | SID104194143 | abnormal cell clusters | – |
| CG14258 | SID104194545 | abnormal cell clusters | – |
| Shab | SID104187805 | too many neurite branches | – |
| CG33978 | SID104196898 | too many neurite branches | – |
| CG7252 | SID104190581 | axon bundles split apart | – |
| CG7252 | SID104201221 | axon bundles split apart | – |
| CG11247 | SID104191435 | reduced axon outgrowth | – |
| CG12011 | SID104188011 | reduced axon outgrowth | – |
| CG15080 | SID104186303 | abnormal cell clusters | – |
| PIP4K | SID104197005 | too many neurite branches | – |
| CG30467 | SID104186889 | reduced axon outgrowth | – |
| CG4328 | SID104190202 | reduced axon outgrowth | – |
| Dp1 | SID104187195 | abnormal cell clusters | – |
| CG11889 + CG11891 | SID104194218 | abnormal cell clusters | – |
| Osi2 | SID104191966 | axon bundles split apart | – |
| spo | SID104190919 | too many neurite branches | – |
| JMJD4 | SID104182817 | axon bundles split apart | – |
| Past1 | SID104196576 | axon bundles split apart | – |
| AQP | SID104185914 | abnormal cell clusters | – |
| CG15083 | SID104186306 | abnormal cell clusters | – |
| Sgs3 | SID104191072 | too many neurite branches | – |
| CG14985 | SID104187870 | abnormal cell clusters | – |
| CG16739 | SID104186413 | axon bundles split apart | – |
| Ugt49C1 | SID104184044 | axon bundles split apart | – |
| CG32100 | SID104189517 | reduced axon outgrowth | – |
| mTTF | SID104181701 | axon bundles split apart | – |
| CG4789 | SID104199710 | sheet-like cell extensions | – |
| CG5131 | SID104182609 | abnormal cell clusters | – |
| Jhbp7 | SID104194200 | reduced axon outgrowth | – |
| CG5853 | SID104182698 | abnormal cell clusters | – |
| CG4629 | SID104180451 | reduced axon outgrowth | – |
| E(spl)m7-HLH | SID104196488 | axon bundles split apart | – |
| blp | SID104195549 | axon bundles split apart | – |
| Gdap2 | SID104186581 | axon bundles split apart | – |
| Gdap2 | SID104186582 | axon bundles split apart | – |
| Cpr30F | SID104182700 | axon bundles split apart | – |
| tn | SID104185560 | sheet-like cell extensions | – |
| CG12926 | SID104186031 | sheet-like cell extensions | – |
| Gld2 | SID104195655 | too many neurite branches | – |
| ms(2)35Ci | SID104181252 | sheet-like cell extensions | – |
| CG7907 | SID104196131 | reduced axon outgrowth | – |
| CG44837 | SID104189925 | abnormal cell clusters | – |
| CG7368 | SID104190618 | cell fragments present | – |
| Arf6 | SID104185713 | fewer cells | – |
| CG14632 (retired record) | SID104197734 | axon bundles split apart | – |
| CG33341 | SID104202246 | beaded; swollen axons | – |
| Ask1 | SID104201376 | fewer cells | – |
| CG17508 | SID104187563 | too many neurite branches | – |
| Ir10a | SID104198683 | abnormal cell clusters | – |
| RpL8 | SID104188324 | reduced axon outgrowth | – |
| RpL8 | SID104188487 | too many neurite branches | – |
| ND-B14.7 | SID104184336 | reduced axon outgrowth | – |
| CG42500 | SID104194614 | axon bundles split apart | – |
| CG4269 | SID104184249 | beaded; swollen axons | – |
| Erk7 | SID104198019 | axon bundles split apart | – |
| CG15753 (retired record) | SID104199510 | too many neurite branches | – |
| twe | SID104183420 | sheet-like cell extensions | – |
| CG8187 | SID104186891 | too many neurite branches | – |
| conv | SID104187005 | axon bundles split apart | – |
| Zw | SID104200095 | cell fragments present | – |
| tor | SID104187499 | axon bundles split apart | – |
| alphaCOP | SID104188498 | cell fragments present | – |
| CG32806 | SID104201378 | axon bundles split apart | – |
| Mpcp1 | SID104187129 | axon bundles split apart | – |
| jigr1 | SID104193516 | sheet-like cell extensions | – |
| CG17193 | SID104194979 | beaded; swollen axons | – |
| Hcf | SID104196935 | axon bundles split apart | – |
| CG32206 | SID104189886 | axon bundles split apart | – |
| CG32206 | SID104189887 | sheet-like cell extensions | – |
| CG32206 | SID104189888 | fewer cells | – |
| CG31141 | SID104193438 | reduced axon outgrowth | – |
| mRpS9 | SID104195248 | too many neurite branches | – |
| Polr2M | SID104195305 | too many neurite branches | – |
| CG8051 | SID104199869 | fewer cells | – |
| Trm7-34 | SID104195963 | abnormal cell clusters | – |
| Spn77Bb + Spn77Bc | SID104190481 | abnormal cell clusters | – |
| Spn77Bb + Spn77Bc | SID104191585 | axon bundles split apart | – |
| RpS3 | SID104196630 | sheet-like cell extensions | – |
| Syb | SID104187351 | axon bundles split apart | – |
| Irk2 | SID104195361 | cell fragments present | – |
| Ir75c | SID104189982 | cell fragments present | – |
| pyd | SID104194237 | axon bundles split apart | – |
| pyd | SID104194301 | abnormal cell clusters | too many neurite branches |
| pyd | SID104196339 | abnormal cell clusters | – |
| pyd | SID104196833 | too many neurite branches | – |
| CR33315 | SID104202304 | axon bundles split apart | – |
| Grl36b | SID104181419 | beaded; swollen axons | – |
| Rbbp5 + CG6434 (retired record) | SID104190427 | reduced axon outgrowth | – |
| Idgf2 | SID104183142 | too many neurite branches | – |
| CG12341 | SID104185925 | too many neurite branches | – |
| CG15283 | SID104181772 | too many neurite branches | – |
| CG34382 | SID104188791 | abnormal cell clusters | – |
| RpL32 | SID104196627 | too many neurite branches | – |
| Dyb | SID104187000 | axon bundles split apart | – |
| Dyb | SID104202221 | too many neurite branches | – |
| Tango6 | SID104182463 | axon bundles split apart | – |
| CG16736 | SID104194937 | too many neurite branches | – |
| Jheh2 | SID104186322 | too many neurite branches | – |
| wake | SID104195941 | abnormal cell clusters | – |
| Kdm4B | SID104186654 | abnormal cell clusters | – |
| CG30062 | SID104201407 | sheet-like cell extensions | – |
| CG30379 | SID104184862 | abnormal cell clusters | – |
| smal | SID104182110 | too many neurite branches | – |
| RpL39 | SID104184443 | too many neurite branches | – |
| CG4610 | SID104184269 | axon bundles split apart | – |
| MESK2 + CG10494 | SID104184051 | beaded; swollen axons | too many neurite branches |
| Takl2 | SID104195442 | abnormal cell clusters | – |

Already shown: an excerpt of the list.
| gene | PubChem SID | phenotype seen, replicate 1 | phenotype seen, replicate 2 |
| --- | --- | --- | --- |
| Syb | SID104187351 | axon bundles split apart | – |
| Irk2 | SID104195361 | cell fragments present | – |
| Ir75c | SID104189982 | cell fragments present | – |
| pyd | SID104194237 | axon bundles split apart | – |
| pyd | SID104194301 | abnormal cell clusters | too many neurite branches |
| pyd | SID104196339 | abnormal cell clusters | – |
| pyd | SID104196833 | too many neurite branches | – |
| CR33315 | SID104202304 | axon bundles split apart | – |
| Grl36b | SID104181419 | beaded; swollen axons | – |
| Rbbp5 + CG6434 (retired record) | SID104190427 | reduced axon outgrowth | – |
| Idgf2 | SID104183142 | too many neurite branches | – |
| CG12341 | SID104185925 | too many neurite branches | – |
| CG15283 | SID104181772 | too many neurite branches | – |
| CG34382 | SID104188791 | abnormal cell clusters | – |
| RpL32 | SID104196627 | too many neurite branches | – |
| Dyb | SID104187000 | axon bundles split apart | – |
